For the experiment, the target named is glucocorticoid receptor (human (endogenous in HeLa)) (UniProt P04150). Briefly: co-IP; HeLa cells (transfected with HIF-1α per methods; treated with deferoxamine per legend), with or without 100 nM dexamethasone for 1 h, lysed in RIPA buffer; GR immunoprecipitated with GR antibody (IgG as control) on Protein A Sepharose overnight at 4 °C; immunoblotted for HIF-1α. A general note: In western blotting, separated proteins are transferred to a membrane and probed.

Amino acid sequences for entries named in this document (tags omitted).
UniProt P04150: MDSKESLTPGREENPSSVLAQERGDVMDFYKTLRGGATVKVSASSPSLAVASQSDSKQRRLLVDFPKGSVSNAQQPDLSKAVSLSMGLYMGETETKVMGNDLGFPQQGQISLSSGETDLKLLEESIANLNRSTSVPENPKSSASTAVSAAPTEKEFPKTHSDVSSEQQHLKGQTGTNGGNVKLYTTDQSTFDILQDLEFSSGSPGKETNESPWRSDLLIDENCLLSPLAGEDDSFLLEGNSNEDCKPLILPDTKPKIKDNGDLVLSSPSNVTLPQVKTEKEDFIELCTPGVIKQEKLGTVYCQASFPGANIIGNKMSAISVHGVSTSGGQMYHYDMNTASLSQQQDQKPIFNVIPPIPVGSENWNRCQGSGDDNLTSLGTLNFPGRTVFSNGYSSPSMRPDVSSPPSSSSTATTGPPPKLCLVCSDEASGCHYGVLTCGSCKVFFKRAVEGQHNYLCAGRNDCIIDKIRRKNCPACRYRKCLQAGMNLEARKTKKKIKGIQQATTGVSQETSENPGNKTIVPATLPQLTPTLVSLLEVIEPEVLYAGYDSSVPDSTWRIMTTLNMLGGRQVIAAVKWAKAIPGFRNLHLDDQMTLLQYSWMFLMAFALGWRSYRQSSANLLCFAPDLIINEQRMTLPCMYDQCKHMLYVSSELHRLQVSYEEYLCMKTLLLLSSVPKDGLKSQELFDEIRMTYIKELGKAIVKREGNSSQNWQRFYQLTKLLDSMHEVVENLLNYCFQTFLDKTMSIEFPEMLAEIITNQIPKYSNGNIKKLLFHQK
UniProt Q16665: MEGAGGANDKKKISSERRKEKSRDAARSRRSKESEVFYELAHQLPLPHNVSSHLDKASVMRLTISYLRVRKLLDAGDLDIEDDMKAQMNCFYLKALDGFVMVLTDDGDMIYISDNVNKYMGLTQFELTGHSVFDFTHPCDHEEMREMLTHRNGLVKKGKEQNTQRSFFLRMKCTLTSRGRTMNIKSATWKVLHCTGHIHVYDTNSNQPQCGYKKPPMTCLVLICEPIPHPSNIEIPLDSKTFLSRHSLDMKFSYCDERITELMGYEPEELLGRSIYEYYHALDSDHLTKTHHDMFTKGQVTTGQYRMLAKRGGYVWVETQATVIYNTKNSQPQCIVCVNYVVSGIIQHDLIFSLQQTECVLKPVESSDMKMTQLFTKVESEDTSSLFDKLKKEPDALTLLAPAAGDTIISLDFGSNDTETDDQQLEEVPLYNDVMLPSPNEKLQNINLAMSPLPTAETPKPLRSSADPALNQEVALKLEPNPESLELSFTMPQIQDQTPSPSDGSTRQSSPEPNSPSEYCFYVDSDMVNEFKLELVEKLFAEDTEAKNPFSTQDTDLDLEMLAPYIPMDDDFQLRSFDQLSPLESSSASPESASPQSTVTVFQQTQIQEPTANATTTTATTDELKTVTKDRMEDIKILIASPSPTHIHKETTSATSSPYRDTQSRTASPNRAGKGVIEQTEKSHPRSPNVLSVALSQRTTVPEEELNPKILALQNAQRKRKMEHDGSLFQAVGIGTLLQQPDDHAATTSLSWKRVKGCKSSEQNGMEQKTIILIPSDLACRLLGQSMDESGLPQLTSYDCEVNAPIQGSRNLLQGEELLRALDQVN

This passage reports binding results from paper PMC7646191.

Results are given in words; binding and its absence hold for the method and conditions named. In cells and extracts the contact can be indirect.

Regarding HIF-1α (from UniProt Q16665 1-826), the binding result was “no binding”.
